The source of these data is the supplement of paper PMC12462457.

Structures can show the parent of a compound that is named as a salt. ± gives the standard deviation of the averaged measurements. The list shows a part of the results. This data set is noisy: repeats of one test often differ as much as different tests do.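 Cell counts came from imaging DAPI-stained nuclei, excluding as dead any cells lacking phalloidin-stained cytoplasm. Counts per well were normalized to the median vehicle-well count on that plate, and the values were averaged over two replicate plates.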

The test system of this test is OVCAR8. Put plainly: cell count relative to DMSO vehicle (fold change); higher = more surviving senescent cells (less killing). Particulars: senescence inducer: cisplatin 10 µM 48 h, then 6 d recovery (CP senescent), exposure time 24 h.

Take `C[C@@H]1O[C@@H](O[C@H]2[C@H](O[C@H]3CC[C@@]4(C)[C@@H](CC[C@]5(C)[C@@H]4CC=C4[C@@H]6CC(C)(C)CC[C@]6(C(=O)O)CC[C@]45C)[C@]3(C)CO)OC[C@H](O)[C@@H]2O)[C@H](O)[C@H](O)[C@H]1O` [alpha-Hederin]: the cell count came to 0.87 ± 0.018 (compound dose 1 µM) and 1.03 ± 0.012 (compound dose 5 µM).
Turning to `CC1(C)CC[C@]2(NC(=O)C(C)(F)F)CC[C@]3(C)[C@H](C(=O)C=C4[C@@]5(C)C=C(C#N)C(=O)C(C)(C)[C@@H]5CC[C@]43C)[C@@H]2C1` [Omaveloxolone], the cell count by setting is: (compound dose 1 µM) 0.381 ± 0.031; (compound dose 5 µM) 0.026 ± 0.011.
For `O=C(NNc1nc2cc(F)ccc2n2cccc12)c1cnccn1`, in that order: 1.07 ± 0.2 and 0.788 ± 0.15.
On to `CCN1C(=O)C=CC1=O` [N-Ethylmaleimide], for which the cell count reads like this: (compound dose 1 µM) 1.13 ± 0.052; (compound dose 5 µM) 1.11 ± 0.12.
On to `COc1ccc2[nH]cc(/C=C3\C(=O)Nc4ccc(NC(=O)CCN5CCCCC5)cc43)c2c1`, for which the cell count (compound dose 1 µM) was determined as 0.827 ± 0.085 and the cell count (compound dose 5 µM) came out at 0.545 ± 0.045.
In the same order, the values of `CNC(=O)COc1cc2cc(Nc3nc(N4CCC(C(=O)N(C)C)CC4)ncc3Cl)cc(OC)c2n(C)c1=O` are 1.15 ± 0.057 and 1.15 ± 0.036.
As for `COc1cc(Nc2ncc3c(n2)-c2ccc(Cl)cc2C(c2c(F)cccc2OC)=NC3)ccc1C(=O)O` [Alisertib (MLN8237)], the cell count came to 1.07 ± 0.094 (compound dose 1 µM) and 0.934 ± 0.021 (compound dose 5 µM).
For `O=c1cc(N2CCOCC2)oc2c(-c3ccccc3)cccc12`, in that order: 0.982 ± 0.17 and 1.03 ± 0.17.
In the same order, the values of `COc1ccc2cc1Oc1ccc(cc1)C[C@H]1c3cc(c(OC)cc3CCN1C)Oc1c(O)c(OC)cc3c1[C@H](C2)N(C)CC3` [Fangchinoline] are 1.14 ± 0.12 and 1.04 ± 0.17.
In the same order, the values of `Nc1cc(C(F)(F)F)c(-c2cc(N3CCOCC3)nc(N3CCOCC3)n2)cn1` [Buparlisib (BKM120, NVP-BKM120)] are 0.736 ± 0.083 and 0.359 ± 0.099.
Consider `O=C(O)c1cc(=O)c2ccccc2[nH]1` [Kynurenic acid (sodium)], for which the cell count is, setting by setting: (compound dose 1 µM) 0.867 ± 0.076; (compound dose 5 µM) 0.679 ± 0.028.
On to `O=C(O)c1cc(=O)c2ccccc2[nH]1`, for which the cell count was 1.01 ± 0.14 (compound dose 1 µM) and 0.416 ± 0.12 (compound dose 5 µM).
For `Clc1ccc(C(c2ccccc2Cl)C(Cl)Cl)cc1` (stereo not drawn), in that order: 0.881 ± 0.11 and 0.815 ± 0.0092.
For `O=C1O[C@H]([C@@H](O)CO)C(O)=C1O` [L-Ascorbic acid], in that order: 1.12 ± 0.17 and 1.06 ± 0.017.
In the same order, the values of `O=C(O)C1(c2ccc(-c3ccc(Cl)c(Cl)c3)c(F)c2)CC1` [Itanapraced] are 0.741 ± 0.47 and 0.654 ± 0.1.
`CCCCN1CCCC[C@H]1C(=O)Nc1c(C)cccc1C` [Levobupivacaine (hydrochloride)]: the cell count by setting is: (compound dose 1 µM) 0.986 ± 0.16; (compound dose 5 µM) 0.938 ± 0.037.
In the same order, the values of `CNCc1ccc(C)c(NC(=O)c2ccc(Nc3nc(-c4ccccc4)c4ccccc4n3)cc2)c1` are 0.989 ± 0.069 and 0.714 ± 0.058.
Consider `CCCc1cc2c(N3CCN(C4=NCC(C)(C)S4)CC3)ncnc2s1` [MI-2 (Menin-MLL Inhibitor)], for which the cell count was 1.07 ± 0.078 (compound dose 1 µM) and 0.656 ± 0.49 (compound dose 5 µM).
As to `Fc1ccc(Nc2nc(Nc3ccc(-c4nc5ccccc5[nH]4)cc3)nc(N3CCOCC3)n2)cc1`, the cell count is, setting by setting: (compound dose 1 µM) 1.14 ± 0.12; (compound dose 5 µM) 0.695 ± 0.36.
For `Cc1cc(F)c(C(=O)Nc2cccc(-c3nncn3C(C)C)n2)cc1-n1cnc(C2CC2)c1` [Selonsertib], in that order: 0.945 ± 0.018 and 0.615 ± 0.26.
As to `O=C(Nc1ccc(CN2CCOCC2)cc1)c1ccc(-c2cccc(Cl)c2)o1`, the cell count is, setting by setting: (compound dose 1 µM) 0.962 ± 0.089; (compound dose 5 µM) 1.34 ± 0.034.
For the compound `CN1CCN(c2ccc3nc(-c4ccc5nc(-c6cccc(OCCCC(=O)NCCCN=[N+]=[N-])c6)[nH]c5c4)[nH]c3c2)CC1` [Targapremir-210], the cell count (compound dose 1 µM) is 1.2 ± 0.051 and the cell count (compound dose 5 µM) is 0.811 ± 0.21.
For `O=C(c1ccc(F)c(F)c1Nc1ccc(I)cc1F)N1CC(O)([C@@H]2CCCCN2)C1` [Cobimetinib], in that order: 1.01 ± 0.069 and 0.9 ± 0.0099.
In the same order, the values of `CCCCS(=N)(=O)CCC(N)C(=O)O` (stereo not drawn) are 1.15 ± 0.18 and 0.972 ± 0.25.
On to `C=CC(=O)N1CCC[C@H](n2c(=O)n(-c3ccc(Oc4ccccc4)cc3)c3c(N)ncnc32)C1` [ONO-4059 (analog)], for which the cell count by setting is: (compound dose 1 µM) 1.12 ± 0.059; (compound dose 5 µM) 0.852 ± 0.12.
Take `COc1cc(O)c(C(=O)/C=C/c2ccccc2)c(OC)c1` [Flavokawain B]: the cell count runs as follows: (compound dose 1 µM) 0.871 ± 0.095; (compound dose 5 µM) 0.873 ± 0.04.
For `CCCc1nn(C)c2c(=O)[nH]c(-c3cc(S(=O)(=O)N4CCN(C)CC4)ccc3OCC)nc12`, in that order: 1.17 ± 0.063 and 0.867 ± 0.49.
For `COc1cc(CNC(=O)CCCCCCC(C)C)ccc1O` [Dihydrocapsaicin], in that order: 1.09 ± 0.08 and 0.915 ± 0.056.
For `N#CC[C@H](C1CCCC1)n1cc(-c2ncnc3[nH]ccc23)cn1` [Ruxolitinib], in that order: 1.13 ± 0.066 and 0.728 ± 0.25.
Take `Cn1cnc2c(F)c(Nc3ccc(Br)cc3Cl)c(C(=O)NOCCO)cc21` [Selumetinib (AZD6244)]: the cell count was determined as 1.3 ± 0.14 (compound dose 1 µM) and 1.22 ± 0.098 (compound dose 5 µM).
Turning to `CC1(C)O[C@@H]2C[C@H]3[C@@H]4C[C@H](F)C5=CC(=O)C=C[C@]5(C)[C@H]4[C@@H](O)C[C@]3(C)[C@]2(C(=O)CO)O1` [Flunisolide], the cell count was 1.16 ± 0.042 (compound dose 1 µM) and 1.137 ± 0.0092 (compound dose 5 µM).
On to `CCOC(=O)c1c2c3c(cccc3[nH]c1=O)C(=O)c1ccccc1-2`, for which the cell count runs as follows: (compound dose 1 µM) 1.04 ± 0.24; (compound dose 5 µM) 1.08 ± 0.071.
`COc1ccc(-c2cc(=O)c3c(OC)cc(OC)cc3o2)cc1`: the cell count by setting is: (compound dose 1 µM) 0.742 ± 0.028; (compound dose 5 µM) 1.06 ± 0.1.
For `CC(ONC(=O)c1cc(C(F)(F)F)cc(C(F)(F)F)c1)C(=O)Nc1ccc(Cl)cc1` (stereo not drawn), in that order: 0.814 ± 0.15 and 0.985 ± 0.073.
